In this series the test system is Staphylococcus aureus ATCC 43300 (MRSA). Type of series: cell-based. The conditions noted are these: against MRSA, relative to in vitro toxicity. Here is the method: All compounds submitted to CO‐ADD are initially screened against five bacterial strains (Staphylococcus aureus (MRSA), E. coli, Klebsiella pneumoniae, Pseudomonas aeruginosa, Acinetobacter baumannii) and two fungal strains (Candida albicans, Cryptococcus neoformans) at a single concentration (32 μg/mL or 20 μM) performed as a high‐throughput primary screening.[[11], [17a]] Any compounds that show significant growth inhibition against any of the tested strains at this step are then evaluated in a dose‐response assay against these same strains. […]
Smiles: C1C=CCCC(=CC1)C1=CCCC=CCC1.C[Pt]C.C[Pt]C […]
For all the bacterial assays, each strain was cultured in Cation-adjusted Mueller Hinton broth (CAMHB; Bacto Laboratories 212322) at 37 °C overnight. […] The resultant mid-log phase cultures were diluted with CAMHB (CFU mL−1 measured by OD600), then added to each well of the compound-containing plates (384-well non-binding surface (NBS) plates; Corning CLS3640), giving a cell density of 5 × 10^5 CFU mL−1 and a total volume of 50 μL. […] Inhibition of bacterial growth was determined measuring absorbance at 600 nm (OD600), using media only as negative control and bacteria without inhibitors as positive control. […]

SMILES strings stand for the structures.

Among the data in paper PMC8596843, “Platinum Cyclooctadiene Complexes with Activity against Gram‐positive Bacteria” (Chemmedchem, 2021) are therapeutic index values, retold here.

In turn, `C1=C\CC/C=C\CC/1.[Cl-].[Cl-].[Pt+2]` [Pt1, Pt(COD)Cl2] had a therapeutic index of over 100.

`C1=CCC/C=C\CC1.[I][Pt][I]` [Pt2, Pt(COD)I2]: the therapeutic index is over 100.
